Primary screen of a compound library

Sequences of proteins named here, by UniProt entry; tags and fusion partners are left off.
UniProt P9WPC5, whole entry: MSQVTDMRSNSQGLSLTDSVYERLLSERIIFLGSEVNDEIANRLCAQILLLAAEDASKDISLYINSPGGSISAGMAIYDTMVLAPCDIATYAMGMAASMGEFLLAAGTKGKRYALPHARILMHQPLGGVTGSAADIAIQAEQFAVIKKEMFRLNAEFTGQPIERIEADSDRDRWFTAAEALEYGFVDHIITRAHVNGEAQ
UniProt P9WPC3, whole entry partner: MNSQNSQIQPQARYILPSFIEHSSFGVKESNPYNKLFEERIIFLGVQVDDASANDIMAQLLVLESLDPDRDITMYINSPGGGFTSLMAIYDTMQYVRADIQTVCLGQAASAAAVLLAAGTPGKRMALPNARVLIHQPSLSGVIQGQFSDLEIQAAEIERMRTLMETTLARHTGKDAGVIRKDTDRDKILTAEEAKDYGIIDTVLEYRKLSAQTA
UniProt I6X8D2, whole entry: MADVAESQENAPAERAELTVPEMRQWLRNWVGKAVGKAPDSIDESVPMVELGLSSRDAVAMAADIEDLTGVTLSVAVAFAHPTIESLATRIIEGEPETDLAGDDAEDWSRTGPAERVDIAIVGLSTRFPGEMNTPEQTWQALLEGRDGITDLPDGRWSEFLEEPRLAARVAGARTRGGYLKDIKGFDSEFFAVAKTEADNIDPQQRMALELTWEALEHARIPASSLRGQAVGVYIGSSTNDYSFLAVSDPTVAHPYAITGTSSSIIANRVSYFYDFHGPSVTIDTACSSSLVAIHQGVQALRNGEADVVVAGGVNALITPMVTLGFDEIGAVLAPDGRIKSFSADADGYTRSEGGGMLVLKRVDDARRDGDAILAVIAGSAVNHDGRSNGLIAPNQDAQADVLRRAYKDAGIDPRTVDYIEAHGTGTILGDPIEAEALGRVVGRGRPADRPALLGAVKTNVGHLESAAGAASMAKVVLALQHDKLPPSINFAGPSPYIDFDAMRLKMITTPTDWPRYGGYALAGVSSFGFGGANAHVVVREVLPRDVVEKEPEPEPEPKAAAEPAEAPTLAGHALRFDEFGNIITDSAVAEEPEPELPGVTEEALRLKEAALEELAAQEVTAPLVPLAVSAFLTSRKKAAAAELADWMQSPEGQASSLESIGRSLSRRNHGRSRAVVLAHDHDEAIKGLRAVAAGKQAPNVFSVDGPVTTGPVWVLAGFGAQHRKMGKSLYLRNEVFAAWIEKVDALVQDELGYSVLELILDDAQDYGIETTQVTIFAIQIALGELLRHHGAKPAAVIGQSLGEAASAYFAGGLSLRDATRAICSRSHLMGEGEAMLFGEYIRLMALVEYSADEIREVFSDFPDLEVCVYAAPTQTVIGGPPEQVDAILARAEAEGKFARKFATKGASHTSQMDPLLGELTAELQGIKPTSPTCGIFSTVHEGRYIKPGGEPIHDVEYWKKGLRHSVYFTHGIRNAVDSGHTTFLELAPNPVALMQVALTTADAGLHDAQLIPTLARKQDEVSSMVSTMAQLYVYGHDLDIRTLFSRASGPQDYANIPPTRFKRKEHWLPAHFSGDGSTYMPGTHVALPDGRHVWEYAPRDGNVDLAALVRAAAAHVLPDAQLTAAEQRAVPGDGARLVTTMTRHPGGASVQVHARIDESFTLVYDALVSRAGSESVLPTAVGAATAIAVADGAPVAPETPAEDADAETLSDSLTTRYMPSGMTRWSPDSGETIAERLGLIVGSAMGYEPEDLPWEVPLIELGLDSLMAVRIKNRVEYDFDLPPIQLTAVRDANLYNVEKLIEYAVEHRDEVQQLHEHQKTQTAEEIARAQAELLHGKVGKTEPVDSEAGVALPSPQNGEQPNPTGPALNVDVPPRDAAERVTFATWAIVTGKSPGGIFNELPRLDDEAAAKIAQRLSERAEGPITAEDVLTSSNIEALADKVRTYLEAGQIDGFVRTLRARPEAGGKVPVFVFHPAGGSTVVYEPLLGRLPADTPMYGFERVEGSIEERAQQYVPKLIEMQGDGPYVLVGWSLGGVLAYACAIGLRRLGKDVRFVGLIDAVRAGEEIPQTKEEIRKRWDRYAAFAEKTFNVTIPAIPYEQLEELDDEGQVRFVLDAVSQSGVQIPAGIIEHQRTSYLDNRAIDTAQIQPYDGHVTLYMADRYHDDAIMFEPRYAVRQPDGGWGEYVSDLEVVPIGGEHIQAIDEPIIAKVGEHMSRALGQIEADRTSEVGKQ

From ChEMBL document CHEMBL3988442, “University of Dundee, Small-Polar-MMV Screening Library” (2021).

Each number is a percent effect as filed. The record does not define 0% and 100%; most values in the screen are far below 50% and negative numbers occur (in some assays of this library far below -100). The compounds are a random part of those screened. Two or more numbers in one place are separate tests of the same structure; such repeats can differ widely. A dash means the value is not listed here; it may have been measured.

A: 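Cell assay of Leishmania donovani living inside macrophages; the read-out is not stated. Compounds at 30 µM. The record gives no direction; compounds that gave an IC50 in retests scored well above the rest, so higher reads as stronger inhibition. Of about 69,000 compounds tested this way, about 1,000 (1.5%) reached 50% or more in at least one test.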
B: 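Assay of Toxoplasma gondii numbers, read through their beta-galactosidase reporter with a colour substrate. Tested at 10 µM. The record gives no direction; the compounds picked for IC50 retests had high values, so higher reads as fewer parasites. Size under these conditions: about 67,000 compounds, about 260 of them at 50% or above in at least one test.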
C: 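Protease assay of ClpP1P2, read by the AMC dye that it sets free. Target: ClpP1P2, Mycobacterium tuberculosis (UniProt P9WPC5 and UniProt P9WPC3). Tested at 50 µM. Direction is inferred from only a few compounds that gave an IC50; most scored high, so higher reads as stronger inhibition. Most other retested compounds had strongly negative values. Of about 69,000 compounds tested this way, about 10 (0.015%) reached 50% or more in at least one test.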
D: 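Whole-parasite assay of Trypanosoma brucei over 72 hours; the read-out is not stated. Concentration: 30 µM. Higher reads as stronger inhibition (inferred: compounds with an IC50 in retests scored well above the rest). Values scatter widely below zero; nearly all retest evidence comes from the higher of the two concentrations used. About 64,000 compounds were tested under these conditions; 1.5% (about 940) showed 50% or more at least once.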
E: 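Enzyme assay of the thioesterase domain of polyketide synthase 13; the read-out is not stated. Target: Polyketide synthase Pks13, Mycobacterium tuberculosis (UniProt I6X8D2). Tested at 30 µM. Higher reads as stronger inhibition (inferred from which compounds were picked for retests). About 67,000 compounds were tested under these conditions; 0.46% (about 300) showed 50% or more at least once.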

structure | A | B | C | D | E
CCn1cc2c(n1)C(COC)CN(C(=O)CCOc1ccccc1)C2 (centres undefined) | 27.34% | 6.005% | -4.244% | 30.33% | -3.06%
COc1ncccc1CNC(=O)c1csc(Br)c1 | 26.79% | -2.25% | -0.7783% | 7.211% | -12.15%
CC(C)Nc1nc2c(s1)C(=O)CN(C(=O)NCCc1ccccc1)C2 | 15.21% & 10.46% | 3.145% | -4.774% | -5.844% | 3.505%
CS(=O)(=O)N1CCC2(CC1)CC(CC(=O)NC1CC1)c1ccccc12 (centres undefined) | 11.1% | -16.33% | -1.022% | 11.25% | -17.28%
NC(=O)C1CCN(CC(=O)N2CCCC2c2ccsc2)CC1 (centres undefined) | -20.51% | 13.59% | -3.061% | -45.65% | -19.73%
Cc1nn(C)c(C)c1CN(C)c1nc(C2CC2)nc2c(C)nn(C)c12 | -21.06% | 1.851% | 21.06% | -60.71% | 10.59%
CCCN1CCCN(C(=O)C(CC)N2CCCC2=O)CC1 (centres undefined) | -16.31% | -3.904% | 6.356% | -8.762% | -8.648%
COCCc1noc(CN2CC(C)(c3ccccc3)CCC2=O)n1 (centres undefined) | 16.89% | -6.952% | 5.912% | -13.81% | -
O=C(C1CCOCC1)N1CC[C@H]2C[C@@H](c3ccncn3)O[C@@H]2C1 | - | - | -4.212% | - | -9.881%
CCC(CNC(=O)C1CCC1)(OC)c1ccccc1 (centres undefined) | 9.061% & 7.107% | -7.207% | -10.39% | -0.2976% | -12.33%
CNC(=O)N1CC[C@@H]2CN(Cc3cccnc3)S(=O)(=O)[C@@H]2CC1 | - | - | 5.367% | - | -34.24%
Cn1ccnc(Sc2ccccc2)c1=O | 2.239% | -3.068% | -5.199% | 7.955% | 1.119%
Cn1ccnc1CN1CCc2onc(COCC3CC3)c2C1.O=C(O)C(F)(F)F | 13.8% | 12.51% | - | -17.03% | -
O=C(CN1CCCS1(=O)=O)Nc1cccc(COC2CCCCC2)c1 | -2.283% | -4.83% | -2.194% | 14.23% | -13.49%
CSc1ccc(CN(CCO)C(=O)CCOc2ccccc2)cc1 | -55.49% | -15.15% | -12.49% | -33.74% | -7.234%
Cc1ccc(C(=O)NC(CN2CCCC2=O)c2ccccc2)c(=O)[nH]1 (centres undefined) | -14.78% | -7.663% | -6.225% | -36.67% | 4.276%
COc1ccc(NC(C)C(=O)N2CCN(c3ncccn3)CC2)cn1 (centres undefined) | -9.343% | -2.956% | -0.7988% | -52.11% | 4.942%
COc1ccc(OC)c(CNc2c(O)c(=O)c2=O)c1 | 18.89% | 15.63% | -3.803% | -27.24% | -4.12%
CCn1ncc2c1CN(C(=O)Cc1cccs1)CC2COC (centres undefined) | - | - | 12.24% | - | 12.89%
Cc1noc(CCCC(=O)NC(C)c2nnc3n2CCC3)n1 (centres undefined) | -5.394% | -0.2899% | 5.287% | -14.99% | -22.58%
CCn1cc(CN2CCCN(C(=O)c3sccc3OC)CC2)cn1 | 12.53% | 0.2651% | 0.936% | - | 2.436%
CNC(=O)C1(c2cnccn2)CCCN1C(=O)c1ccccc1F (centres undefined) | -15.79% | 7.297% | 5.588% | 3.346% | 24.95%
CC(=O)N1CCCN(CCCc2ccccc2)CC1 | 28.25% | 0.8115% | -2.442% | -13.99% | -34.8%
Cc1ccc(CNC(=O)Cn2ncc3c2c(C)nn3C)cc1 | 30.2% | -0.2391% | -6.452% | 2.751% | -12.26%
Cc1noc(C)c1C(=O)N1CC[C@]2(C[C@@H](OCc3cccnc3)CO2)C1.O=C(O)C(F)(F)F | 10.23% | -39.54% | - | -230.9% | -
[H][C@@]12CN(C(=O)NC(C)C)C[C@]1(C(=O)NC)CCCN2c1ncccn1 | -23.61% | -3.215% | - | 12.57% | -
CC(C)CCn1cc(C(C(=O)O)N2CCC(c3ccncc3)CC2)cn1 (centres undefined) | 2.42% | 9.893% | 17.37% | -5.679% | -21.68%
CCCNC(=O)CN1CCOC(c2ccc(Br)cc2)C1 (centres undefined) | -3.353% | 6.667% | 1.368% | -14.74% | -20.75%
Cc1c(CN2CCCC(C(=O)Nc3ccccc3)C2)cc(C#N)n1C (centres undefined) | 26.42% | 15.36% | -7.751% | -1.954% | -6.276%
CCc1c(C)nc2n(c1=O)CC(C(=O)Nc1ccccc1F)CS2 (centres undefined) | 21.74% | -0.1109% | -8.17% | 41.19% | -15.77%
[H][C@]12CC[C@]([H])(CN(Cc3cc(=O)c4cc(C)ccc4[nH]3)C1)N(CCOC)C2 | 38.8% | -4.38% | - | -15.96% | -
CCOc1ccccc1CNC(=O)N(CC)C(C)c1cccnc1 (centres undefined) | 14.76% | - | -8.153% | -16.05% | -13.17%
CC(C(=O)NCCN1CCCCC1)n1cncn1 (centres undefined) | 25.84% | 3.288% | 10.03% | 5.989% | -0.586%